These are yes or no findings as the source states them, for the method shown.
Assays:
[1] = target: recombinant human plasma kallikrein/KLKB1, C-terminal His tag (human) (UniProt P03952); assay: flow cytometry of protein-coated microbeads (cobalt-coated bead test with phages); only the target purified
[2] = target: human serum albumin, C-terminal His tag (Abcam ab217817) (human) (UniProt P02768); assay: as above
[3] = target: human serum albumin, C-terminal His tag (Abcam ab217817) (human) (UniProt P02768); assay: flow cytometry of protein-coated microbeads (cobalt-coated bead test); both purified

Protein sequences, listed by entry. Tags and fused reporters are not part of them. Residues count along the entry.
UniProt P03952, residues 20-638: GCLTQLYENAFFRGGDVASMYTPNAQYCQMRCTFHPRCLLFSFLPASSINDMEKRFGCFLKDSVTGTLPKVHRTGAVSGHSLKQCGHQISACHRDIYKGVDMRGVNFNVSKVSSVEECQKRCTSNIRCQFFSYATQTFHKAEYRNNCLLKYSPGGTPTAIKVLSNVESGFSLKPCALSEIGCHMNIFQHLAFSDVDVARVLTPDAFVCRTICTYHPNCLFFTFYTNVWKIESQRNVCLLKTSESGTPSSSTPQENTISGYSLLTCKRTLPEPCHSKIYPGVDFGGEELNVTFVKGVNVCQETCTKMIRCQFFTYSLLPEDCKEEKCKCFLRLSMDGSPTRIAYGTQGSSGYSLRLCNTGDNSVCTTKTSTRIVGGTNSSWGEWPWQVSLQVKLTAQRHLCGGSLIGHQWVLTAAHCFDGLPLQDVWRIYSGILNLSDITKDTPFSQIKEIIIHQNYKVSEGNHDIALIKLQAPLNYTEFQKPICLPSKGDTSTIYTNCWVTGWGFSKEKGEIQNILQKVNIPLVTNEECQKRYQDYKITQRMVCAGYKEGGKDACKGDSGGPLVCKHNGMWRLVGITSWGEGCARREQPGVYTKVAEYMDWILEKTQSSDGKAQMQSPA
UniProt P02768, residues 25-609: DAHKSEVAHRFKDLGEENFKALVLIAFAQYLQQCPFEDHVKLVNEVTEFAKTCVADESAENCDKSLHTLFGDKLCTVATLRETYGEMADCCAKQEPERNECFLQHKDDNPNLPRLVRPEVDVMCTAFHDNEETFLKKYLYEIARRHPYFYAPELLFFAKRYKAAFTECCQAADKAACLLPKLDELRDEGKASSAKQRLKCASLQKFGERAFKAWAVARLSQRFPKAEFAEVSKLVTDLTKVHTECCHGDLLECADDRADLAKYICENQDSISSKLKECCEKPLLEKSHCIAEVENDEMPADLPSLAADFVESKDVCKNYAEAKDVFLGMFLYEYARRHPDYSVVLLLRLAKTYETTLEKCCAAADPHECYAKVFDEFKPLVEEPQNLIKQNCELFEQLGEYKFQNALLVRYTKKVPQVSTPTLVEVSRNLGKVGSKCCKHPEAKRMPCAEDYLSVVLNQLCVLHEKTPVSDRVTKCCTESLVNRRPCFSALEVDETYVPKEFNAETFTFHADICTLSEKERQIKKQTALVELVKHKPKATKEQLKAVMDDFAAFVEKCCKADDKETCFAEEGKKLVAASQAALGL
UniProt P45639: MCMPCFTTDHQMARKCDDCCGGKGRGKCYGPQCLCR

Substance | binding [1] | binding [2] | binding [3]
CTX-displaying phage (CTX fused to the P3 coat protein of M13) (from UniProt P45639 1-36) | no binding (tested: 6 × 10^14 particle/ml) | no binding (tested: 5.5 × 10^14 particles/ml) | 
cyanine 5-labeled chlorotoxin (from UniProt P45639 1-36) (peptide) |  |  | no binding (tested: 1 μM CTX-Cy5)

Reference: paper PMC10477481, “Chlorotoxin binds to both matrix metalloproteinase 2 and neuropilin 1” (The Journal of Biological Chemistry, 2023)
